Experimental data: PubChem BioAssay AID686937 (Drosophila RNAi Screening Center, 2013)
The screen tested about 23,000 reagents; below is a random part of those with a known target gene and a result. 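Reduced-secretion tags in replicate 1 do not always agree with the z-scores; no criterion for assigning the tags was given.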 Names joined by + are all predicted targets of the reagent. Not all columns of the deposit are shown. The record does not give: the amount of reagent.

Aim: 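Genes whose loss weakens secretory pathway function in fly cells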 (primary screen)
Cell system: Drosophila S2 cells expressing secreted horseradish peroxidase
Knock-down reagent: long dsRNA against Drosophila genes
Timing: about 5.5 days (5 days dsRNA, then 12 h reporter induction)
Conditions: reporter expression induced after 5 days of dsRNA, read 12 h later; inducer not stated
Measured: 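After 5 days of dsRNA and 12 h of reporter induction, medium peroxidase read by chemiluminescence and scored as per-plate z-score; higher values mean more reporter released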
Scale: z-score: higher = more reporter secreted into medium

With hpRNA:CR18854 + IP3K1 [DRSC02218], what was measured?
z-score, replicate 1: 0.51

What did the screen give for Sc2 [DRSC08162]?
z-score, replicate 1: 0.51

What did the screen give for CG5828 [DRSC02900]?
z-score, replicate 1: 0.81

With CG7382 [DRSC03052], what was measured?
z-score, replicate 1: 0.01

For CG3198 [DRSC18292], what was measured?
z-score, replicate 1: -0.25

With crol (crooked legs) [DRSC03514], what does the deposit list?
z-score, replicate 1: 0.03

What did the screen give for crol (crooked legs) [DRSC21348]?
z-score, replicate 1: 0.12

With RpL23 (Ribosomal protein L23) [DRSC04648], what was measured?
z-score, replicate 1: -6.25; phenotype, replicate 1: reduced secretion

What is on record for CG4660 [DRSC18378]?
z-score, replicate 1: 0.29

For Pex13 (Peroxin 13) [DRSC06877], what was measured?
z-score, replicate 1: 0.13

With CG4080 [DRSC10398], how do the results read?
z-score, replicate 1: 0.4

For pgc (polar granule component) [DRSC04099], what was measured?
z-score, replicate 1: 0.31

With CG5023 [DRSC15697], what does the deposit list?
z-score, replicate 1: 0.22

For CG14969 [DRSC08428], what does the deposit list?
z-score, replicate 1: 0.32

A stretch from the list above:
crol (crooked legs) [DRSC21348]: z-score, replicate 1 = 0.12
RpL23 (Ribosomal protein L23) [DRSC04648]: z-score, replicate 1 = -6.25; phenotype, replicate 1 = reduced secretion
CG4660 [DRSC18378]: z-score, replicate 1 = 0.29
Pex13 (Peroxin 13) [DRSC06877]: z-score, replicate 1 = 0.13
CG4080 [DRSC10398]: z-score, replicate 1 = 0.4
pgc (polar granule component) [DRSC04099]: z-score, replicate 1 = 0.31

The listing continues.
Which result is listed for mahj (mahjong) [DRSC04053]?
z-score, replicate 1: -0.77

What did the screen give for Cenp-C (Centromeric protein-C) [DRSC14371]?
z-score, replicate 1: -1.62; phenotype, replicate 1: reduced secretion

For CG33268 [DRSC10143], how do the results read?
z-score, replicate 1: 0.4

What is on record for ND-MNLL (NADH dehydrogenase (ubiquinone) MNLL subunit) [DRSC18159]?
z-score, replicate 1: 0.38

For CG5521 [DRSC15828], what was measured?
z-score, replicate 1: 0.24

How did the screen score CG31548 [DRSC22640]?
z-score, replicate 1: 0.56

Which result is listed for CG11454 [DRSC00310]?
z-score, replicate 1: 0.06

How did the screen score CG33110 [DRSC14694]?
z-score, replicate 1: -1.56; phenotype, replicate 1: reduced secretion

For CG33110 [DRSC16137], what was measured?
z-score, replicate 1: 0.49

How did the screen score CG8031 [DRSC16364]?
z-score, replicate 1: 0.47

With Adgf-A2 (Adenosine deaminase-related growth factor A2) [DRSC09507], what was measured?
z-score, replicate 1: 0.12

What is on record for apn (apnoia) [DRSC15124]?
z-score, replicate 1: 0.35

Which result is listed for CG6425 [DRSC16038]?
z-score, replicate 1: 0.22

How did the screen score rt (rotated abdomen) [DRSC11391]?
z-score, replicate 1: 0.08

For bol (boule) [DRSC08964], how do the results read?
z-score, replicate 1: 0.12

Which result is listed for bol (boule) [DRSC10444]?
z-score, replicate 1: 0.37

With bol (boule) [DRSC11329], what does the deposit list?
z-score, replicate 1: -0.51

What did the screen give for CG34133 [DRSC16319]?
z-score, replicate 1: 0.41

For CG34133 [DRSC22239], what does the deposit list?
z-score, replicate 1: 0.17

For snRNP-U1-C (small ribonucleoprotein particle U1 subunit C) [DRSC15804], how do the results read?
z-score, replicate 1: -2.79; phenotype, replicate 1: reduced secretion

Which result is listed for Stt3B [DRSC16781]?
z-score, replicate 1: -0.17

What did the screen give for Rpt3R (Regulatory particle triple-A ATPase 3-related) [DRSC16501]?
z-score, replicate 1: -2.02; phenotype, replicate 1: reduced secretion

How did the screen score CG15605 [DRSC06558]?
z-score, replicate 1: 0.44

What did the screen give for CR32011 + CR32010 + PlexB + 1 more [DRSC21664]?
z-score, replicate 1: -0.01

What did the screen give for CG42340 [DRSC17458]?
z-score, replicate 1: 0.28

With CG42340 [DRSC17841], what does the deposit list?
z-score, replicate 1: 0.4

For CG42340 [DRSC18305], how do the results read?
z-score, replicate 1: -0.89

What did the screen give for CG42340 [DRSC21619]?
z-score, replicate 1: -0.81
